# ± gives the standard deviation of the averaged measurements. This is a selection; strong and weak results do not stand in their true shares.
# What was measured:
# Test in all cases: NP40-soluble protein abundance relative to vehicle (solubility fold change) (ratio); higher = more soluble protein in presence of AMP-PNP
# AATF = biological target: T1, AATF (UniProt Q9NY61)
# T1 sequence (whole entry): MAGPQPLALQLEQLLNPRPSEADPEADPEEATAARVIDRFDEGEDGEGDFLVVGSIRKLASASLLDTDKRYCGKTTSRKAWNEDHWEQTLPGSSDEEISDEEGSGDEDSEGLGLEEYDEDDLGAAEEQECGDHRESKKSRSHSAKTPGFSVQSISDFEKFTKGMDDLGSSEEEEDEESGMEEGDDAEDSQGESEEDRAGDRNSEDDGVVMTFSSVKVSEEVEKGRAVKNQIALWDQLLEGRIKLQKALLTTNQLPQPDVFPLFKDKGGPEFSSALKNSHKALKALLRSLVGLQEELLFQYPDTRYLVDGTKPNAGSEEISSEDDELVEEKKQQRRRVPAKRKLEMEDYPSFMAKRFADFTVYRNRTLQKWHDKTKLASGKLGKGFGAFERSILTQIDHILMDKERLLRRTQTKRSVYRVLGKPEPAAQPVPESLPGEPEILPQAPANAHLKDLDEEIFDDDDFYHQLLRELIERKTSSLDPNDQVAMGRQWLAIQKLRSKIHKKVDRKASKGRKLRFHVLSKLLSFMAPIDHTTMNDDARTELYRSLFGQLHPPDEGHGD
# How it was run: (§1)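 Jurkat crude lysate (Dounce-homogenised) was treated with eight concentrations from 0.1 to 10 mM for 10 min at room temperature, then 3 min at 37 °C. It was solubilised with 0.8% NP40 and benzonase (60 min, 4 °C) and ultracentrifuged, and the supernatant was TMT-labelled for LC-MS/MS. Intensities were vsn-normalised, and the value is the fold change against the NP40-processed vehicle per replicate, from three independent experiments.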
# ATXN10 = biological target: T2, ATXN10 (UniProt Q9UBB4)
# T2 sequence (whole entry): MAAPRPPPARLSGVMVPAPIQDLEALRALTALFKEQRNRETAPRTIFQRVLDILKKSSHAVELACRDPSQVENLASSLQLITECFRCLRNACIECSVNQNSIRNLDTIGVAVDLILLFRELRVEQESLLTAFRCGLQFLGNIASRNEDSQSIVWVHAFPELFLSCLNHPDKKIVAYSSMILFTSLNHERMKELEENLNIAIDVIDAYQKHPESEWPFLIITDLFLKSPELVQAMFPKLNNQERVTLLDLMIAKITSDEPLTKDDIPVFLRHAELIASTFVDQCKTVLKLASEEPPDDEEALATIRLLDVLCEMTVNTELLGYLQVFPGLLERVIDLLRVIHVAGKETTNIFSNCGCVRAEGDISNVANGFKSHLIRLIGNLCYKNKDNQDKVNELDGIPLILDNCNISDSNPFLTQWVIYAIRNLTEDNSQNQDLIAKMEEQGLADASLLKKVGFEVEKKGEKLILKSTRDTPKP
# How it was run: as §1
# FARSB = biological target: T3, FARSB (UniProt Q9NSD9)
# T3 sequence (whole entry): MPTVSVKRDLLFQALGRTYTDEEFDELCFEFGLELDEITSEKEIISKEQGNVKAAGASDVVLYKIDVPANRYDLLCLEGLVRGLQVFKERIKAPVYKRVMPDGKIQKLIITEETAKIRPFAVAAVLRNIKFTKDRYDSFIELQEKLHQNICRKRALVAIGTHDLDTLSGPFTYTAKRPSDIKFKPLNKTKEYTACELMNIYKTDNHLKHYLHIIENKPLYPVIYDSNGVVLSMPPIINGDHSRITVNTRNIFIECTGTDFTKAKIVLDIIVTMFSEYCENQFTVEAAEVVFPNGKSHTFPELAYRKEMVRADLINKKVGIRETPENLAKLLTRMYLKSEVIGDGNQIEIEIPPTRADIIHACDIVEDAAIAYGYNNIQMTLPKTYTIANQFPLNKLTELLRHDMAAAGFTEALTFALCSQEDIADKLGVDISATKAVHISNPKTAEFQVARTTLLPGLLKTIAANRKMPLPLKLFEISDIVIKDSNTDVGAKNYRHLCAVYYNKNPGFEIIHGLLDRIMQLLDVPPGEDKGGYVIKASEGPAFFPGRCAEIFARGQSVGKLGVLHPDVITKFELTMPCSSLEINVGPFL
# How it was run: as §1
# MED17 = biological target: T4, MED17 (UniProt Q9NVC6)
# T4 sequence (whole entry): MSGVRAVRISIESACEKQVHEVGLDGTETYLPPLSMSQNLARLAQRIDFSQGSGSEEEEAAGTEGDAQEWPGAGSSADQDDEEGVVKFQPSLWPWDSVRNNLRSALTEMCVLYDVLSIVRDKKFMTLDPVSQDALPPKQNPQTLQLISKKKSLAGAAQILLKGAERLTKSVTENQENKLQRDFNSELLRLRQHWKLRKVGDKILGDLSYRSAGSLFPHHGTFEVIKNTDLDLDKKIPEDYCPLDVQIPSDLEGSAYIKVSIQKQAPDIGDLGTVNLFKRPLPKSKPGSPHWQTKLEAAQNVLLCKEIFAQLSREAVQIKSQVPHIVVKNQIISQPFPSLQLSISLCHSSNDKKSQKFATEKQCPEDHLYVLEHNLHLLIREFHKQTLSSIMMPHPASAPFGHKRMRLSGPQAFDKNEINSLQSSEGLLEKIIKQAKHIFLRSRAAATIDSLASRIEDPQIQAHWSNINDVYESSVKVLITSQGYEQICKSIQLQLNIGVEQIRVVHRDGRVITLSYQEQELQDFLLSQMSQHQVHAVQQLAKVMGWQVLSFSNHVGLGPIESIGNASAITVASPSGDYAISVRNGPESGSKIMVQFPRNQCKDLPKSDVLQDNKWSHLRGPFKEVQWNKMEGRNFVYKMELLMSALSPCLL
# How it was run: as §1
# NKIRAS1 = biological target: T5, NKIRAS1 (UniProt Q9NYS0); settings: concentration: 1mM
# T5 sequence (whole entry): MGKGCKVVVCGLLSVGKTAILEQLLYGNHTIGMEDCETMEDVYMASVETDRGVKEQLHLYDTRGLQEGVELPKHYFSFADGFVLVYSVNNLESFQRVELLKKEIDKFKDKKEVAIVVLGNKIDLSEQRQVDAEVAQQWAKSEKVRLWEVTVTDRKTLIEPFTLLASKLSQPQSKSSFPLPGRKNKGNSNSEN
# How it was run: as §1
structure (smiles),measurement,setting,value
Nc1ncnc2c1ncn2[C@@H]1O[C@H](COP(=O)(O)OP(=O)(O)NP(=O)(O)O)[C@@H](O)[C@H]1O [adenylyl imidodiphosphate],NP40-soluble protein abundance,AATF; concentration: 1mM,0.954 ± 0.071
same,NP40-soluble protein abundance,AATF; concentration: 2mM,0.985 ± 0.025
same,NP40-soluble protein abundance,AATF; concentration: 4mM,0.952 ± 0.043
same,NP40-soluble protein abundance,AATF; concentration: 6mM,0.958 ± 0.063
same,NP40-soluble protein abundance,AATF; concentration: 8mM,0.936 ± 0.049
same,NP40-soluble protein abundance,AATF; concentration: 10mM,0.991 ± 0.062
same,NP40-soluble protein abundance,ATXN10; concentration: 1mM,0.976 ± 0.018
same,NP40-soluble protein abundance,ATXN10; concentration: 2mM,0.954 ± 0.021
same,NP40-soluble protein abundance,ATXN10; concentration: 4mM,0.943 ± 0.043
same,NP40-soluble protein abundance,ATXN10; concentration: 6mM,0.954 ± 0.049
same,NP40-soluble protein abundance,ATXN10; concentration: 8mM,0.915 ± 0.058
same,NP40-soluble protein abundance,ATXN10; concentration: 10mM,0.916 ± 0.061
same,NP40-soluble protein abundance,FARSB; concentration: 1mM,0.971 ± 0.038
same,NP40-soluble protein abundance,FARSB; concentration: 2mM,0.878 ± 0.12
same,NP40-soluble protein abundance,FARSB; concentration: 4mM,0.96 ± 0.045
same,NP40-soluble protein abundance,FARSB; concentration: 6mM,0.975 ± 0.014
same,NP40-soluble protein abundance,FARSB; concentration: 8mM,0.99 ± 0.041
same,NP40-soluble protein abundance,FARSB; concentration: 10mM,0.955 ± 0.051
same,NP40-soluble protein abundance,MED17; concentration: 1mM,0.947 ± 0.024
same,NP40-soluble protein abundance,MED17; concentration: 2mM,0.914 ± 0.031
same,NP40-soluble protein abundance,MED17; concentration: 4mM,0.968 ± 0.056
same,NP40-soluble protein abundance,MED17; concentration: 6mM,0.99 ± 0.046
same,NP40-soluble protein abundance,MED17; concentration: 8mM,0.985 ± 0.06
same,NP40-soluble protein abundance,MED17; concentration: 10mM,1 ± 0.12
same,NP40-soluble protein abundance,NKIRAS1,1 ± 0.033

# Quoted at random: two entries already listed, in no set order.
structure (smiles),measurement,setting,value
Nc1ncnc2c1ncn2[C@@H]1O[C@H](COP(=O)(O)OP(=O)(O)NP(=O)(O)O)[C@@H](O)[C@H]1O [adenylyl imidodiphosphate],NP40-soluble protein abundance,ATXN10; concentration: 2mM,0.954 ± 0.021
same,NP40-soluble protein abundance,AATF; concentration: 1mM,0.954 ± 0.071

# — the supplement of paper PMC6411743
